Experimental findings from the supplement of paper PMC12578635 are described below.

Each structure is given as a SMILES string. The list shows a part of the results. Rule as the data show it: active = 150% or more and inactive = the rest. Single values are uncertain, as repeats are few or missing.

The test system of the test is Staphylococcus aureus JE2-lux inside RAW 264.7 macrophages. The experiment in a line: intracellular bacterial bioluminescence relative to DMSO vehicle; higher = higher intracellular bacterial metabolic activity. The note with it: 10 µM; treatment time 4 h; gentamicin 50 µg/ml.
As to `CCC(=O)Nc1ccc(NC(=O)c2cc(OC)c(OC)c(OC)c2)cn1`, the intracellular bacterial bioluminescence is inactive: 125%.

Consider `O=C(Nc1nccs1)c1cc2c(=O)n3ccccc3nc2s1`, for which the intracellular bacterial bioluminescence is inactive: 113%. Regarding `COc1cccc(NC(=O)N2C3CCCC2CC(NC(C)=O)C3)c1` (stereo not drawn), the intracellular bacterial bioluminescence was inactive: 102%. In the case of `Cc1ccc(S(=O)(=O)Nc2ccccc2C(=O)Nc2sccc2C(N)=O)cc1` it was inactive: 118%. In the case of `Cc1ccc2nc3c(cc(S(=O)(=O)c4ccc(Cl)cc4)c(=N)n3C3CCCC3)c(=O)n2c1` it was inactive: 126%; in that of `CC(=O)Nc1cc(-c2ccccc2)nn1-c1nc(-c2ccccc2)cs1`, inactive: 82.2%; in that of `Cc1ccc2cc(CCNC(=O)COc3ccc4ccccc4c3)c(=O)[nH]c2c1`, inactive: 87.2%. Under `O=C(Cc1ccc(F)cc1)Nc1nnc(-c2ccccc2)[nH]1` stands inactive: 110%; under `C=CCNC(=O)Cn1c(C)c(Cc2ccccc2)c(=O)n2nc(-c3ccc(C)cc3)nc12`, inactive: 96.4%; under `O=C(c1ccccc1F)N1CCc2cc(-c3csc(-c4cccnc4)n3)ccc21`, inactive: 23.6%. In the case of `COc1cc2ccccc2cc1C(=O)Nc1nnc(-c2ccncc2)o1`, the intracellular bacterial bioluminescence is inactive: 84.7%. As to `Cc1ccc2c(c1)/C(=N\NC(=S)Nc1cccc(O)c1)C(=O)N2`, the intracellular bacterial bioluminescence is inactive: 102%. Under `CC1C(c2ccc(F)cc2)=NOC1C(=O)NC(c1ccccc1)c1ccnn1C` (stereo not drawn) stands inactive: 113%; under `Cc1ccc(S(=O)(=O)N(C)c2cncc(C(=O)NC(C)C)c2)cc1`, inactive: 115%; under `Cc1nc2ccccc2n1C(=O)c1ccccc1C(=O)O`, inactive: 108%. In the case of `Cc1c(C)n(-c2ccccc2)c2nc(C(=O)NCCCN3CCCC3=O)nc(N3CCCCC3)c12` it was inactive: 38.7%. In the case of `CCOCCn1/c(=N\C(=O)c2cccc(S(C)(=O)=O)c2)sc2cccc(F)c21` it was inactive: 103%.

`Cc1nn(C)c(C)c1S(=O)(=O)N1CCc2c(c(C(=O)N3CCOCC3)nn2C)C1`: the intracellular bacterial bioluminescence was inactive: 83.2%.

As to `COc1cccc(-c2noc(NC3CCCCC3)n2)c1`, the intracellular bacterial bioluminescence is inactive: 87.8%. In the case of `Cc1cc(C)c2cc(CNCC3CCCO3)c3nn(C)c(=O)n3c2c1` (stereo not drawn) it was inactive: 48.8%. Regarding `CCCCN(C)S(=O)(=O)c1ccc(C(=O)Nc2ccc3ccccc3c2)cc1`, the intracellular bacterial bioluminescence was inactive: 108%. In the case of `CCOC(=O)N1CCN(C(=O)CSCC(=O)/N=c2\sc3cc(OC)ccc3n2C)CC1` it was inactive: 58.5%; in that of `Cc1ccc2c(Cl)c(C(=O)Nc3cc(-c4ccc(F)cc4)no3)sc2c1`, inactive: 112%; in that of `O=C(O)c1cccc(N2C(=O)CC(Nc3ccc(F)cc3)C2=O)c1` (stereo not drawn), inactive: 113%. In the case of `COc1ccc(-c2cc(C(=O)Nc3cc(C)n(C)n3)ccc2-n2ccnc2)cc1` it was inactive: 108%; in that of `COCCCn1c(=N)c(C(=O)NC(C)c2ccccc2)cc2c(=O)n3cccc(C)c3nc21` (stereo not drawn), inactive: 134%. Under `COc1ccc2oc(=O)c(C(=O)NC3=C(C#N)CCC3)cc2c1` stands inactive: 128%; under `Oc1nc(SCc2cc3c(cc2Cl)OCO3)nc2[nH]cnc12`, inactive: 113%; under `CCS(=O)(=O)c1ccccc1C(=O)N1CCN(c2nc3ccc([N+](=O)[O-])cc3s2)CC1`, inactive: 81.7%. For `CCc1ccc(NC(=O)c2cnn3c(=O)cc(C)[nH]c23)cc1`, the intracellular bacterial bioluminescence is inactive: 89.8%. As for `CC(=O)Nc1ccc2nc(Nc3nc4ccc(C(C)C)cc4s3)sc2c1`, the intracellular bacterial bioluminescence is inactive: 58.9%. In the case of `O=C(CSc1ncnc2ccccc12)Nc1cccc(C(F)(F)F)c1`, the intracellular bacterial bioluminescence is inactive: 1.91%. Under `CCOC(=O)c1c(NC(=O)C(C)Sc2nc(=O)n3cc(C)ccc3n2)sc2c1CCCCC2` (stereo not drawn) stands inactive: 64.2%.

In the case of `C=CCN1C(=O)c2oc3ccccc3c(=O)c2C1c1ccc(O)c(OC)c1` (stereo not drawn), the intracellular bacterial bioluminescence was inactive: 121%.

Consider `COCCCNC(=O)Cn1c(C)cc(=O)n2nc(-c3ccccc3Cl)nc12`, for which the intracellular bacterial bioluminescence is inactive: 111%.

Consider `O=C(Nc1ccccc1F)C(=O)c1c[nH]c2ccccc12`, for which the intracellular bacterial bioluminescence was inactive: 124%. Consider `O=C(Nc1ccon1)C1CCN(S(=O)(=O)c2cccs2)CC1`, for which the intracellular bacterial bioluminescence is inactive: 84.4%. In the case of `O=C(Nc1ccc2c(c1)CCC2)C1CCN(C(=O)NC2CCCCC2)CC1` it was inactive: 98.5%; in that of `NS(=O)(=O)c1ccc(CNC(=O)c2cccn3c(-c4ccc(F)cc4)nnc23)cc1`, inactive: 87.7%.

On to `CCCc1cc(C(=O)N2CCCC2c2ccc(C)cc2)no1` (stereo not drawn), for which the intracellular bacterial bioluminescence was inactive: 88.3%. In the case of `c1ccc2c(c1)c(N1CCN(Cc3ccc4c(c3)OCO4)CC1)nn1nnnc21` it was inactive: 96%; in that of `COC(=O)c1ccc2nc(NC(=O)c3ccc(Br)s3)sc2c1`, inactive: 117%; in that of `Cn1ncc2c1CCc1sc(NC(=O)CC3CCS(=O)(=O)C3)nc1-2` (stereo not drawn), inactive: 103%. In the case of `Cc1ccc(NC(=S)NC2CC3CCC(C2)N3Cc2ccccc2)cc1C` (stereo not drawn) it was inactive: 102%; in that of `c1csc(CCNc2nn3cnnc3c3ccccc23)c1`, inactive: 110%. As for `NC(=O)Cn1cnc2c(sc3ncccc32)c1=O`, the intracellular bacterial bioluminescence is inactive: 105%.

As for `CCOc1ccc2[nH]c(C(=O)NC(c3ccccc3)c3cccnc3)c(C)c2c1` (stereo not drawn), the intracellular bacterial bioluminescence is inactive: 85.8%. In the case of `Cc1cccn2c(=O)nc(SCC(=O)Nc3ccccc3F)nc12` it was inactive: 73.3%; in that of `Cc1nn2c(=O)/c(=C\c3cccnc3)sc2nc1=O`, inactive: 84.3%; in that of `O=C(CCN1C(=O)c2ccccc2S1(=O)=O)Nc1ccc(F)c([N+](=O)[O-])c1`, inactive: 5.15%. Under `Cc1ccc(C(=O)CSc2nnc3cc(C)c4ccccc4n23)s1` stands inactive: 80.8%.

For the compound `COc1ccc(OC)c(NC(=O)Cn2c(=O)n(C(C)C)c3ncccc32)c1`, the intracellular bacterial bioluminescence is inactive: 108%. Under `O=C(CCC1CCCC1)N1CCN(c2ncnc3c2nnn3-c2ccc(F)cc2)CC1` stands inactive: 86.5%; under `COc1cc(/C=N/NC(=O)CNC(=O)c2cccc3ccccc23)cc(OC)c1OC`, inactive: 81.4%.

Consider `COc1cc(OC)cc(C(=O)N2CCN(c3nc4ccccc4cc3-c3noc(C)n3)CC2)c1`, for which the intracellular bacterial bioluminescence is inactive: 79.4%.

For `Cc1nc(-n2nc(C)c(CC(=O)N3CCCCC3)c2O)sc1C`, the intracellular bacterial bioluminescence was inactive: 91.2%.

Consider `COc1cccc2cc(C(N)=O)/c(=N\c3ccc(O)cc3)oc12`, for which the intracellular bacterial bioluminescence was active: 154%. In the case of `Cc1c(Cl)cccc1N1CCCn2c1nc1c2c(=O)n(CC(=O)O)c(=O)n1C` it was inactive: 88.7%.
